Experimental findings from US20180086829A1 are described below.

By UniProt entry, the sequences of proteins in these tests, tags left out. Where a name states a change or a piece, a line headed by the entry shows the natural chain unless it says otherwise. Residues count along the entry.
UniProt Q8NHJ6: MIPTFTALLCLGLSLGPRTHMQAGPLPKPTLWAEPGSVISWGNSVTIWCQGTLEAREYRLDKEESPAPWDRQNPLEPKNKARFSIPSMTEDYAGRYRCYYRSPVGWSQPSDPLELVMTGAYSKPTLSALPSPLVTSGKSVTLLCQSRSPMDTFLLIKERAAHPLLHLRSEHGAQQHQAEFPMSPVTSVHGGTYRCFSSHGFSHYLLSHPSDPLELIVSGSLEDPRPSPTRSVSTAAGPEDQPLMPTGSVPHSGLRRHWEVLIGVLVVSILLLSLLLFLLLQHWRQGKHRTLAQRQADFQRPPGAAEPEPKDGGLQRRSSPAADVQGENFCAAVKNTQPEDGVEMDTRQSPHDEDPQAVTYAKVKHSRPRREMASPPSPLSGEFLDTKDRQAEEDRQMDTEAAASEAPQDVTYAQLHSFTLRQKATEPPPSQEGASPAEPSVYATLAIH
UniProt Q8N423, residues 22-458: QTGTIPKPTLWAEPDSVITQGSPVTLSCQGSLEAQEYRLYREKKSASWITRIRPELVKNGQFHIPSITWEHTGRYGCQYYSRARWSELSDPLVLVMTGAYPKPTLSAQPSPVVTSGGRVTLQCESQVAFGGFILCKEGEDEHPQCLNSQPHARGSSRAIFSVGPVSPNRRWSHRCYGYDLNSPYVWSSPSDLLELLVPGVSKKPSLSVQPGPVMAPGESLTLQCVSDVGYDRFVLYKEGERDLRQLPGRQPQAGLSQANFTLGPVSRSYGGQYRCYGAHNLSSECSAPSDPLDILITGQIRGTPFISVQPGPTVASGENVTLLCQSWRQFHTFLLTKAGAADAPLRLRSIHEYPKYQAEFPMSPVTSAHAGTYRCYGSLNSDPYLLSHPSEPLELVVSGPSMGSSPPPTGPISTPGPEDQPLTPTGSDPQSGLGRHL

In one assay the target is human LILRB4 (human) (UniProt Q8NHJ6). Kind of assay: ELISA. Background: An ELISA detects its analyte on a solid surface through an enzyme-linked reagent.
In assay [1] the target is LILRB2 (human) (UniProt Q8N423). The assay is described as follows: cross-reactivity ELISA (FIG. 46).
The target is the same in assay [2]. Kind of assay: binding model of FIG. 74.

Results are given in words; binding and its absence hold for the method and conditions named. Some results given as binding are weak or reduced against the parent protein; the word gives no strength.

B1: anti-LILRB4 rabbit monoclonal antibody #161-2 (antibody, V domains shown)
VH: QSVKESGGRLVTPGTPLTLTCTVSGIDLSVYLMSWVRHSPGKGLEYIGFINSAGITAYATWAKGRFIISKTSTTVDLKVTSPTTEDTATYFCARNWIRLDLWGQGTLVTISS
VL: TQTPASVSAAVGGTVTISCQSSETIYKNYLSWFQQKPGQPPKLLIYESSKLASGVPSRFSGSGSGTQFTLTISDVQCDDAATYYCLGGYTDGRDTIFGGGTEVEIK
As to B1, the binding entry with human LILRB4 (human) is reported as “binds”.

B2: anti-LILRB4 rabbit monoclonal antibody #139 (antibody, V domains shown)
VH: EQSLEESGGRLVTPGTPLTLTCTVSGFSLNSYAMAWVRQAPGKGLEWIGIIGLSTMTYYASWVNGRFTISKTSTTVDLKMTSLTTEDTATYFCVRNDVYWAFNLWGQGTLVTVSS
VL: ELDLTQTPSSVSAGVGGTVSISCQSSESVVNNHALSWYQQKPGQPPKLLIYKASTLASGVPSRFSGSGSGAQFTLTISGVQCDDAATYYCQGGFYSGISDYPFGGGTEVEIK
In the case of B2, the binding entry with LILRB2 (human) [1] is recorded as “binds”.

B3: anti-LILRB4 rabbit monoclonal antibody #216-2 (antibody, V domains shown)
VH: EQSLKESGGRLVTPGTPLTLTCTVSGIDLSSYAMTWVRQVPGKGLEYIGFINIVGIAGYATWAKGRFTISKTSTTVDLKVTSPTTEDTATYFCARNWIRLDLWGQGTLVTVSS
VL: ELVMTQTPASVSAAVGGTVTISCQSSESLYKKNYLSWFQQKPGQPPKLLIYEASKLASGVPSRFSGSGSGTQFTLTISDVQCDDAASYYCLGDYTNGRDTTFGGGTEVEIK
Regarding B3, the binding result with LILRB2 (human) [2] and with LILRB2 (human) [1] was “binds” throughout.
